# Source: the supplement of paper PMC7024190
# Where a name gives a salt, the structure may show the parent alone. Some of the results follow. This data set is noisy: repeats of one test often differ as much as different tests do.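 A first-round screen of about ten thousand compounds sought those raising reporter output, using human embryonic kidney cells briefly transfected with a plasmid carrying a Renilla luciferase gene driven by the HSV-TK promoter.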
# Tested on: HEK 293FT
# Assay: log relative Renilla luciferase luminescence (reporter expression vs reference, reference not stated) (log (base not stated)); higher = higher recombinant reporter expression
# Conditions: 10 µM; time after transfection 48 h
row,Compound,log
1,Nc1ccc(S(=O)(=O)Nc2cnc3ccccc3n2)cc1 [sulfaquinoxaline sodium],0.104
2,COc1ccc(C[C@H](N)C(=O)N[C@H]2[C@@H](O)[C@H](n3cnc4c(N(C)C)ncnc43)O[C@@H]2CO)cc1 [puromycin dihydrochloride],-0.333
3,CCCCC/C=C/CCC(=O)N[C@H]1[C@H](Oc2c3cc4cc2Oc2ccc(cc2Cl)[C@@H](O[C@@H]2O[C@H](CO)[C@@H](O)[C@H](O)[C@H]2NC(C)=O)[C@@H]2NC(=O)[C@H](NC(=O)[C@@H]4NC(=O)[C@H]4NC(=O)C(Cc5ccc(c(Cl)c5)O3)NC(=O)[C@H](N)c3ccc(O)c(c3)Oc3cc(O)cc4c3)c3ccc(O)c(c3)-c3c(OC4O[C@H](CO)[C@@H](O)[C@H](O)[C@@H]4O)cc(O)cc3[C@@H](C(=O)O)NC2=O)O[C@H](CO)[C@@H](O)[C@@H]1O (stereo not given in full) [teicoplanin [a(2-1) shown]],-0.0896
4,[O-][n+]1cccc(CO)c1 [mepiroxol],0.0256
5,Cc1ccnc(NS(=O)(=O)c2ccc(N)cc2)n1 [sulfamerazine],0.14
6,CC(C)n1c(/C=C/C(O)CC(O)CC(=O)O)c(-c2ccc(F)cc2)c2ccccc21 (stereo not given) [fluvastatin],-0.0585
7,O=c1ccn([C@@H]2O[C@H](CO)[C@@H](O)[C@H]2O)c(=O)[nH]1 [uridine],-0.032
8,CCCCNc1cc(C(=O)O)cc(S(N)(=O)=O)c1Oc1ccccc1 [bumetanide],0.126
9,C[C@H](Cn1cnc2c(N)ncnc21)OCP(=O)(O)O [tenofovir],0.109
10,CC(=O)Oc1cc2c(c(C)c1OC(C)=O)CC=C1[C@@]2(C)CC[C@@]2(C)C3C[C@](C)(C(=O)O)CC[C@]3(C)CC[C@]12C (stereo not given in full) [dihydrocelastryl diacetate],-0.168
11,CC(=O)Oc1ccccc1C(=O)Oc1ccccc1C(=O)O [diplosalsalate],0.0419
12,COC(=O)C1=C(C)NC(C)=C(C(=O)OC)C1c1ccccc1[N+](=O)[O-] [nifedipine],-0.171
13,CCC(=O)O[C@H](CC(=O)O)C[N+](C)(C)C [levocarnitine propionate hydrochloride],0.0918
14,Clc1ccccc1CN1CCc2sccc2C1 [ticlopidine hydrochloride],0.0982
15,Cc1cc(OC(=O)c2c(C)cc(O)cc2O)cc(O)c1C(=O)O [lecanoric acid],-0.00213
16,Cc1cc(C(C)(C)CC(C)(C)C)ccc1OCCOCC[N+](C)(C)Cc1ccccc1 [methylbenzethonium chloride],-0.442
17,Cc1cc(NC(=O)C2=C(O)c3ccccc3S(=O)(=O)N2C)no1 [isoxicam],0.0529
18,CN(C)CCCN1c2ccccc2CCc2ccc(Cl)cc21 [clomipramine hydrochloride],0.0318
19,CO[C@@]1(NC(=O)C2SC(=C(C(N)=O)C(=O)O)S2)C(=O)N2C(C(=O)O)=C(CSc3nnnn3C)CS[C@@H]21 (stereo not given in full) [cefotetan],-0.0784
20,C#C[C@]1(OC(C)=O)CC[C@H]2[C@@H]3CCC4=C[C@@H](OC(C)=O)CC[C@@H]4[C@H]3CC[C@@]21C [ethynodiol diacetate],-0.0385
21,C[C@@H]1CC[C@@]2(OC1)O[C@H]1C[C@H]3[C@@H]4CC[C@H]5C[C@@H](O)CC[C@]5(C)[C@H]4CC[C@]3(C)[C@H]1[C@@H]2C [tigogenin],0.0578
22,Nc1ccc(S(=O)(=O)Nc2ncccn2)cc1 [sulfadiazine],0.0843
23,CO[C@@]1(NC(=O)C(C(=O)O)c2ccc(O)cc2)C(=O)N2C(C(=O)O)=C(CSc3nnnn3C)CO[C@@H]21 (stereo not given in full) [moxalactam disodium],0.0138

row,Compound,log
1,O=c1c(O)c(-c2ccccc2)oc2ccccc12 [3-hydroxyflavone],-0.0117
2,C#C[C@]1(O)CC[C@H]2[C@@H]3CCC4=CC(=O)CC[C@@H]4[C@H]3CC[C@@]21C [norethindrone],-0.0573
3,O=C1CC[C@@H](C(=O)O)N1 [pidolic acid],0.0284
4,CC(C)[C@@H]1CC[C@@H](C)C[C@H]1O [levomenthol],0.0857
5,CC[C@@]1(O)C(=O)OCc2c1cc1n(c2=O)Cc2cc3cc(O)ccc3nc2-1 [10-hydroxycamptothecin],-0.321
6,NS(=O)(=O)c1cc2c(cc1Cl)N=C(CSCc1ccccc1)NS2(=O)=O [benzthiazide],-0.0821
7,CC(=O)OC/C=C(C)/C=C/C=C(C)/C=C/C1=C(C)CCCC1(C)C [retinyl acetate],-0.0121
8,O=C1C(CC[S+]([O-])c2ccccc2)C(=O)N(c2ccccc2)N1c1ccccc1 (stereo not given) [sulfinpyrazone],-0.0693
9,OC[C@@H](O)[C@@H](O)CO [erythritol],0.077
10,N=c1ccn2c(n1)O[C@H]1[C@H](O)[C@@H](CO)O[C@H]12 [ancitabine hydrochloride],-0.126
11,CC(=O)Oc1c(C)cccc1C(=O)O [cresopirine],0.082
12,CCOc1cc(NC(C)=O)ccc1C(=O)OC [ethopabate],-0.0845
13,O=c1[nH]cc(F)c(=O)[nH]1 [fluorouracil],0.0615
14,O=C(O)c1cc(=O)c2cccc(O)c2[nH]1 [xanthurenic acid],-0.0119
15,C[C@]12C=CC(=O)C=C1CC[C@@H]1[C@@H]2[C@@H](O)C[C@@]2(C)[C@H]1CC[C@]2(O)C(=O)CO [prednisolone],-0.0693
16,CC(C)Cc1ccc([C@H](C)C(=O)O)cc1 [dexibuprofen],-0.0526
17,CS(=O)(=O)c1ccc([C@@H](O)[C@@H](CO)NC(=O)C(Cl)Cl)cc1 [thiamphenicol],0.0444
18,O=C(O)Cc1ccccc1Nc1c(Cl)cccc1Cl [diclofenac sodium],-0.108
19,O=C(Nc1cc(Cl)cc(Cl)c1O)c1c(O)c(Cl)cc(Cl)c1Cl [oxyclozanide],-0.922
20,C[C@@H](c1ncncc1F)[C@](O)(Cn1cncn1)c1ccc(F)cc1F [voriconazole],-1.08
21,O=c1cc(-c2cc(O)c(O)c(O)c2)oc2cc(O)cc(O)c12 [hieracin],0.00789
22,C[C@@H]1O[C@@H](Oc2c(-c3ccc(O)c(O)c3)oc3cc(O)cc(O)c3c2=O)[C@H](O)[C@H](O)[C@H]1O [quercitrin],-0.0723

# Laid out differently: results already given
row | Compound | log
3 | O=C1CC[C@@H](C(=O)O)N1 [pidolic acid] | 0.0284
4 | CC(C)[C@@H]1CC[C@@H](C)C[C@H]1O [levomenthol] | 0.0857
5 | CC[C@@]1(O)C(=O)OCc2c1cc1n(c2=O)Cc2cc3cc(O)ccc3nc2-1 [10-hydroxycamptothecin] | -0.321
